Assay results from article doi:10.1101/695155.
Where two headings read alike, the source gives them in different places. No constants are given. Whether binding was seen depends on the method and setting. Binding seen in cells or lysates may run through a third protein. Some results given as binding are weak or reduced against the parent protein; the word gives no strength. Tags and fused reporters may be left off the sequences shown.

Amino acid sequences for entries named in this document (tags omitted). A change or cut given only in a name is not applied to a line headed by its entry.
UniProt Q6P5H2: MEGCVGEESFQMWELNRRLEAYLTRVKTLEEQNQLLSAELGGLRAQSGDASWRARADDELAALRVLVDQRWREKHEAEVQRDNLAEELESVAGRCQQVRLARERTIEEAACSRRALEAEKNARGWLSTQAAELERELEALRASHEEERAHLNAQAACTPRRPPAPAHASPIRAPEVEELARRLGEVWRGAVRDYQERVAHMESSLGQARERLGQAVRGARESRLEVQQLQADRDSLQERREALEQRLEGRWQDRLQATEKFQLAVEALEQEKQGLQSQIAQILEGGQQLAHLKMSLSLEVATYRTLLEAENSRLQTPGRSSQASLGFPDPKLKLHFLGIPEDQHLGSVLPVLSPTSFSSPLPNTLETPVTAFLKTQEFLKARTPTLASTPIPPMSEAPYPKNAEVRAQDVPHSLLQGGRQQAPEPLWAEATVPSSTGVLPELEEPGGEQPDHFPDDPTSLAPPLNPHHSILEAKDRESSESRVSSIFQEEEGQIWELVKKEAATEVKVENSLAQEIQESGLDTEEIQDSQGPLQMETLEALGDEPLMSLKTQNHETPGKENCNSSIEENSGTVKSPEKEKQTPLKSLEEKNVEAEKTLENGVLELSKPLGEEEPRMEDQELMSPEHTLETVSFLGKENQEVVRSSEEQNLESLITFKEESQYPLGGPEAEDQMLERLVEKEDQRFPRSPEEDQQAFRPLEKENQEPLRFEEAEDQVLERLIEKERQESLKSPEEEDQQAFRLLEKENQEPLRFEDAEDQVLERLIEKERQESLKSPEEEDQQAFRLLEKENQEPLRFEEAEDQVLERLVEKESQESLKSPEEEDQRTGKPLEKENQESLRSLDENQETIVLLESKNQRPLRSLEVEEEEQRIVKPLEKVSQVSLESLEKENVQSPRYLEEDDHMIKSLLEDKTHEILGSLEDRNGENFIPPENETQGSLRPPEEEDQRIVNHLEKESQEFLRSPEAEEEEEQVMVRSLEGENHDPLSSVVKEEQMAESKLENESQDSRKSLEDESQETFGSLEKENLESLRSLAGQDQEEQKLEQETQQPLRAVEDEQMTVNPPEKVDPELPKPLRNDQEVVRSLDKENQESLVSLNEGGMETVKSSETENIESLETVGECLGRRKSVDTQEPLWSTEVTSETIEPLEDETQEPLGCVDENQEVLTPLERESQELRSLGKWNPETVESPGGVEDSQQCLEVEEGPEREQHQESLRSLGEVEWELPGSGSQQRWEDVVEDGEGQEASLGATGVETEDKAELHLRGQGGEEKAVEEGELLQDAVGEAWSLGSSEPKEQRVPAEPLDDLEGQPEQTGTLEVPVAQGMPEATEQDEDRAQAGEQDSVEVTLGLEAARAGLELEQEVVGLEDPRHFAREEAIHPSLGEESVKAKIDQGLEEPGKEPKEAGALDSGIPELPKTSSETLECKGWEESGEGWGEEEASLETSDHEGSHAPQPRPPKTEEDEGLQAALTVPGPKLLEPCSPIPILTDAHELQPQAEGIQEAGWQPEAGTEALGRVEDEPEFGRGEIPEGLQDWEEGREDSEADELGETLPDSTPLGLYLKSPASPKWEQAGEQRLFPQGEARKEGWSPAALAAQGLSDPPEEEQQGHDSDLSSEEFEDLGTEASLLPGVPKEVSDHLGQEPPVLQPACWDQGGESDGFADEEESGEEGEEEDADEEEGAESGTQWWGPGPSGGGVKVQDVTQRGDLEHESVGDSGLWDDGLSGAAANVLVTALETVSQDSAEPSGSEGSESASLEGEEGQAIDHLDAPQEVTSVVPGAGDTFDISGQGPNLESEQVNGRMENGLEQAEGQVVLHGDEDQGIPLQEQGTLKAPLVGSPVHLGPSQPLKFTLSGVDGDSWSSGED
UniProt Q15078: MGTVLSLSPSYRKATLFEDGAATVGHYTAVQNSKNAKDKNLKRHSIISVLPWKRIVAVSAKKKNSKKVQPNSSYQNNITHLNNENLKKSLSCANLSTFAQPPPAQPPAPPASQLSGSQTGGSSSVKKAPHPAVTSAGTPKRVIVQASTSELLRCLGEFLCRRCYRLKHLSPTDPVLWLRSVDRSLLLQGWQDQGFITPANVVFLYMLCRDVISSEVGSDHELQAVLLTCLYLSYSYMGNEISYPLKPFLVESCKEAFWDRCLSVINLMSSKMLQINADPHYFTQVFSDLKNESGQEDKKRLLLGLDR

Columns and labels:
Assay in all cases: co-IP
[1] = target: T1, INA-myc (UniProt Q16352)
T1 sequence: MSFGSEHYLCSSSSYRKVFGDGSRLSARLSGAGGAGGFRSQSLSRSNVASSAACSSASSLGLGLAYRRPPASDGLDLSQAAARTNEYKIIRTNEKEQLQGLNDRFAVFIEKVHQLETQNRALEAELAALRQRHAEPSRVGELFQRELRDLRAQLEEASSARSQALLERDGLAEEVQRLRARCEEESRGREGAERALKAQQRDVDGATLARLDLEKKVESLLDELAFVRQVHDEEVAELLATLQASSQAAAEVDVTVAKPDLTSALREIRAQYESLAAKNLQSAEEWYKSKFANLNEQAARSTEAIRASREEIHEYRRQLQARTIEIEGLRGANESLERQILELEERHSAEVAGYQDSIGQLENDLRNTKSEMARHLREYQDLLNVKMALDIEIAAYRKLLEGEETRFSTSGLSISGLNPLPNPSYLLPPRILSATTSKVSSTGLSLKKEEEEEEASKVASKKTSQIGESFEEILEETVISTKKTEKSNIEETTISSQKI

[2] = target: Nestin-myc (mouse) (UniProt Q6P5H2)
[3] = target: Nestin-myc (mouse) (UniProt Q6P5H2); remark: listed apart in the source
[4] = target: Nestin-myc (mouse) (UniProt Q6P5H2); remark: listed apart in the source
[5] = target: Nestin-myc T316A (mouse) (UniProt Q6P5H2)
[6] = target: p35 (UniProt Q15078)

- binding [1]: no binding
- binding [2]: binds
- binding [3]: binds
- binding [4]: binds
- binding [5]: binds
- binding [6]: binds
B1: GFP-DCX (protein, UniProt O43602 1-365)
chain: MELDFGHFDERDKTSRNMRGSRMNGLPSPTHSAHCSFYRTRTLQALSNEKKAKKVRFYRNGDRYFKGIVYAVSSDRFRSFDALLADLTRSLSDNINLPQGVRYIYTIDGSRKIGSMDELEEGESYVCSSDNFFKKVEYTKNVNPNWSVNVKTSANMKAPQSLASSNSAQARENKDFVRPKLVTIIRSGVKPRKAVRVLLNKKTAHSFEQVLTDITEAIKLETGVVKKLYTLDGKQVTCLHDFFGDDDVFIACGPEKFRYAQDDFSLDENECRVMKGNPSATAGPKASPTPQKTSAKSPGPMRRSKSPADSGNDQDANGTSSSQLSTPKSKQSPISTPTSPGSLRKHKDLYLPLSLDDSDSLGDSM
